Results taken from doi:10.1101/2022.09.20.508729.
Results are given in words; binding and its absence hold for the method and conditions named.

Target: PrP^119 (residues 119-231 of human PrP) (human) (UniProt P04156)
Assay: AUC

Substance: PrP^119 (residues 119-231 of human PrP) (from UniProt P04156 119-231) (domain or fragment)
- binding: no binding (tested: 15 – 135 μM)
